Assay results as given in the supplement of paper PMC10849652.
The list shows a part of the results. Residues, ends and D or L forms follow the SMILES beside them. *: point of attachment. Cbz = O=C(OCc1ccccc1)*

By UniProt entry, the sequences of proteins in these tests, tags left out. Where a name states a change or a piece, a line headed by the entry shows the natural chain unless it says otherwise.
UniProt Q6GYQ0: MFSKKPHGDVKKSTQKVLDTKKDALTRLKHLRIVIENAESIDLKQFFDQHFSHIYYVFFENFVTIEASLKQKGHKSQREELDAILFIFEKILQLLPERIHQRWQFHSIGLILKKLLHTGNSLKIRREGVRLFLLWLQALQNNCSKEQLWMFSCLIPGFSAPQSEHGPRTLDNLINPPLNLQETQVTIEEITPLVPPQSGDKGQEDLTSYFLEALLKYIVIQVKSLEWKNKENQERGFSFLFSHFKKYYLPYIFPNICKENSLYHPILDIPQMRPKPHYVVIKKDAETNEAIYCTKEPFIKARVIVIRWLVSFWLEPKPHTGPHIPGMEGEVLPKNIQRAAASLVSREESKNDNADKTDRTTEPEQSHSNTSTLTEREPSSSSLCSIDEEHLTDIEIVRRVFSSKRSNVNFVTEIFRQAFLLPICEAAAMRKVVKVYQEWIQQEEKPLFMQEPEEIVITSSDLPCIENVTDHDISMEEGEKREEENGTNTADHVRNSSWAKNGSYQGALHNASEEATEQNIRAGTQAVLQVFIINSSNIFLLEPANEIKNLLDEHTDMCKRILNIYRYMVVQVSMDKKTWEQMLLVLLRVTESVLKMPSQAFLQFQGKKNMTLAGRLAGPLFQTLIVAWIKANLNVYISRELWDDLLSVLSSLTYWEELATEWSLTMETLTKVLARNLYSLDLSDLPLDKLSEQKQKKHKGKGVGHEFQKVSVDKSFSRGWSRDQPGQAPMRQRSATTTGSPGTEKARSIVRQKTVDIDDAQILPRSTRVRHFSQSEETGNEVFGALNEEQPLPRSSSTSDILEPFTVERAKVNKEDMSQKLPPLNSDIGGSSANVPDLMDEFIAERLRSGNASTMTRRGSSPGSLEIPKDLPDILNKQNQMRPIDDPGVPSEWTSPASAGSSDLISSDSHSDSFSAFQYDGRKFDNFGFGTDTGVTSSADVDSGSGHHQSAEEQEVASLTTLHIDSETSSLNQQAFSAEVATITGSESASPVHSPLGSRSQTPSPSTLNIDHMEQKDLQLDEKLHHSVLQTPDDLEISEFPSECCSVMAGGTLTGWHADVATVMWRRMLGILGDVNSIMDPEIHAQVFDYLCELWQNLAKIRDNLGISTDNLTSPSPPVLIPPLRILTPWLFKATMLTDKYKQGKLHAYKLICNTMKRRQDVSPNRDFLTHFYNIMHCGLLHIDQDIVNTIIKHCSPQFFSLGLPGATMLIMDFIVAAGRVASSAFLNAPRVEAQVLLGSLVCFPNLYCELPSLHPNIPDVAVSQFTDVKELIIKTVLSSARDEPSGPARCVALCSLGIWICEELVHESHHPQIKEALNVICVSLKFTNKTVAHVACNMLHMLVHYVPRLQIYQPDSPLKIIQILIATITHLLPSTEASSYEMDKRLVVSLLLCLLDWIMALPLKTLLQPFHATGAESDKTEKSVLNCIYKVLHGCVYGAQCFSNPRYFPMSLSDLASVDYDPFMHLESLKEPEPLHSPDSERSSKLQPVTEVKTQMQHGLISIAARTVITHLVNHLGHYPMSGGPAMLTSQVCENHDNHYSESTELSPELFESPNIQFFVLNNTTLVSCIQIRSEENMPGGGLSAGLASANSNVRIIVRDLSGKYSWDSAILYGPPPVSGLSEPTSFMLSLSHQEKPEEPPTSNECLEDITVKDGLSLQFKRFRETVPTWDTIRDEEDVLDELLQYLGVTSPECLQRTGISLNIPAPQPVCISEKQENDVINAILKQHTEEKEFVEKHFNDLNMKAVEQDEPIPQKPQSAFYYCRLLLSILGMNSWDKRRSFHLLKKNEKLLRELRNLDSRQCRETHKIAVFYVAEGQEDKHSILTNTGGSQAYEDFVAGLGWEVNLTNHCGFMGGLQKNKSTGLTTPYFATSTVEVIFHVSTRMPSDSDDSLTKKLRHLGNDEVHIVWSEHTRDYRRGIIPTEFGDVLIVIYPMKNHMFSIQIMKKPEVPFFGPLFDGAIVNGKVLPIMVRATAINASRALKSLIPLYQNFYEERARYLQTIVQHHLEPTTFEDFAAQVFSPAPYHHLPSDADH
UniProt P20340: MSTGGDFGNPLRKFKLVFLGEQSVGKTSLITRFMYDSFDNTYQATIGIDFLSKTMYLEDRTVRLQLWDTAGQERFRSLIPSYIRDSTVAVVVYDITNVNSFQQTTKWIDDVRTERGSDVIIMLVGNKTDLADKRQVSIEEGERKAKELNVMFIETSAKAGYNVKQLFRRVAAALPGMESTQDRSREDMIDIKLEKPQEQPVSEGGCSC
UniProt Q9NTZ6: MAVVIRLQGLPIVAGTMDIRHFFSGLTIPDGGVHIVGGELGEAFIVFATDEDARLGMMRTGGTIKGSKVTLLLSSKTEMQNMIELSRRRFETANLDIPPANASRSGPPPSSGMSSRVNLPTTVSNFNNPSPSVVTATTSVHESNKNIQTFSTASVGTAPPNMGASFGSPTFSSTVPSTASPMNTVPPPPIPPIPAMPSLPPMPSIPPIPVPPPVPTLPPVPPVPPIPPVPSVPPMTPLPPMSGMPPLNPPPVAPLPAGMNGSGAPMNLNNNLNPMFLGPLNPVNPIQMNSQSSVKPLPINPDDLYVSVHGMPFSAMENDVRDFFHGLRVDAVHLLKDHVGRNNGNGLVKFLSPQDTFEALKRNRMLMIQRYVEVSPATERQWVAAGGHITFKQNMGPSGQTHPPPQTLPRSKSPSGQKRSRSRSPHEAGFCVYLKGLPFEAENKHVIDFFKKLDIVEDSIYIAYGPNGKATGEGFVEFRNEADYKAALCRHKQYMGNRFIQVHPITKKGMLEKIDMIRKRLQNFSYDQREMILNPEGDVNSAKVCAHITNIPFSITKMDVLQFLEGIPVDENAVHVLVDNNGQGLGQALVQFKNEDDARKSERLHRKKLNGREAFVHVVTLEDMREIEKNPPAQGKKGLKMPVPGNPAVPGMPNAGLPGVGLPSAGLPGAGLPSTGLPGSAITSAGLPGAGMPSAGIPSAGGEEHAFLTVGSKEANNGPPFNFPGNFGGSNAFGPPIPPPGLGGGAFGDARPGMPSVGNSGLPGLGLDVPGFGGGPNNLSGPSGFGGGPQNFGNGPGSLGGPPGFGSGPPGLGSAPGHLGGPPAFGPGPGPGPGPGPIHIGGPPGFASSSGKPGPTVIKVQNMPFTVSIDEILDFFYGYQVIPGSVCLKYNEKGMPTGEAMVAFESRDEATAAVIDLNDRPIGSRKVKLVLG
UniProt Q9UL25: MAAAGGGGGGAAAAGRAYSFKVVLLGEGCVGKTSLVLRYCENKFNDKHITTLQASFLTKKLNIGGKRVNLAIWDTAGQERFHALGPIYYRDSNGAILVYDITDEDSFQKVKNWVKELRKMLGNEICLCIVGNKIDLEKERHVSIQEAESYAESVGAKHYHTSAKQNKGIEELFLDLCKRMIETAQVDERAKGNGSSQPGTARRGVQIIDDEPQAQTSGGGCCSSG
UniProt Q13637: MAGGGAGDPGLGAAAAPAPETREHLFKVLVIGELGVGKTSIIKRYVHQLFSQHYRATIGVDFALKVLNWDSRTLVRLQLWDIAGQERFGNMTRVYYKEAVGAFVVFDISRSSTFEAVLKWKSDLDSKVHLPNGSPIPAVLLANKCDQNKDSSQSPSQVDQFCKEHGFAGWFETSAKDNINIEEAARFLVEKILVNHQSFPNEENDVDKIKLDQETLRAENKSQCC
UniProt Q96I25: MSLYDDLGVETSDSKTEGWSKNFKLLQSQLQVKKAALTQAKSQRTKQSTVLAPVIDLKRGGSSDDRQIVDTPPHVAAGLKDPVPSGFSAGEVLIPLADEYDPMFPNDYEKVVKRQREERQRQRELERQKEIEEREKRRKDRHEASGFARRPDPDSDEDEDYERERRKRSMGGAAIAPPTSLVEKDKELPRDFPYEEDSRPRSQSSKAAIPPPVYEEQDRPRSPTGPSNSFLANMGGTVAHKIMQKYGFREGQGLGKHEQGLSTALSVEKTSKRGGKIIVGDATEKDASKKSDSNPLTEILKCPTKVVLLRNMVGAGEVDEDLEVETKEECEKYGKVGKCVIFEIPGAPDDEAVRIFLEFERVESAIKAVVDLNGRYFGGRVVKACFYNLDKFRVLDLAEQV
UniProt O60216: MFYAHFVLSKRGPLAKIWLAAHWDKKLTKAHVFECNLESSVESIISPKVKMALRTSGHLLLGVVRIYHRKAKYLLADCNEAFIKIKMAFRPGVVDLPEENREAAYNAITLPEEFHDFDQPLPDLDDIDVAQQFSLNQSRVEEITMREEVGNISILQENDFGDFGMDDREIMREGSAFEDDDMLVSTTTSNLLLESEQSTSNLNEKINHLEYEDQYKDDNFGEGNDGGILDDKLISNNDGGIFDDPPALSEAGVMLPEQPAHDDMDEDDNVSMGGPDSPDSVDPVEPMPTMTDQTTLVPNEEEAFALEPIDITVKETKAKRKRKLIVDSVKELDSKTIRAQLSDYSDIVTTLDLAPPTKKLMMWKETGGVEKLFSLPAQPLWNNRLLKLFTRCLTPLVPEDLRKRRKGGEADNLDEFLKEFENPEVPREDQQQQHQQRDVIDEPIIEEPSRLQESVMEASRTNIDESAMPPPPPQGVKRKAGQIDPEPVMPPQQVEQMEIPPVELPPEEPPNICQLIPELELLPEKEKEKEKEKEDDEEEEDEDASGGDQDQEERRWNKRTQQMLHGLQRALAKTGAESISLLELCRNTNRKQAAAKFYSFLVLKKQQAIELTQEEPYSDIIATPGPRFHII
UniProt P51148: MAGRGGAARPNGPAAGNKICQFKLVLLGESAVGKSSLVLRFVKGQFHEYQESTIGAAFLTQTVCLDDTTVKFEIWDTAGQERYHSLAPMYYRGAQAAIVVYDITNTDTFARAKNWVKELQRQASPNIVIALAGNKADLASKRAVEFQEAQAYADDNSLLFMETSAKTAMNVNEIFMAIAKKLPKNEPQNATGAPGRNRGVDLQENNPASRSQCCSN
UniProt P61018: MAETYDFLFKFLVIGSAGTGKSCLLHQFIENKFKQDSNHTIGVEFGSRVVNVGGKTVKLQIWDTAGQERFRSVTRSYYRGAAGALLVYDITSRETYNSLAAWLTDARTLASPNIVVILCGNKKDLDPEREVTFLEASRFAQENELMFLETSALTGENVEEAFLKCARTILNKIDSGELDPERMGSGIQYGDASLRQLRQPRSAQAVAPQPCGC
UniProt P51151: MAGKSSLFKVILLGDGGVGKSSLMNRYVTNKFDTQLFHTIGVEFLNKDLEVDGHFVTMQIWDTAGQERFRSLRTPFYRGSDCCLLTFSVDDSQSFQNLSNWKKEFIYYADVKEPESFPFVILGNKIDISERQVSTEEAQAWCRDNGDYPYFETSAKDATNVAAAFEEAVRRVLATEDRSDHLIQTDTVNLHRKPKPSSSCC
UniProt O14966: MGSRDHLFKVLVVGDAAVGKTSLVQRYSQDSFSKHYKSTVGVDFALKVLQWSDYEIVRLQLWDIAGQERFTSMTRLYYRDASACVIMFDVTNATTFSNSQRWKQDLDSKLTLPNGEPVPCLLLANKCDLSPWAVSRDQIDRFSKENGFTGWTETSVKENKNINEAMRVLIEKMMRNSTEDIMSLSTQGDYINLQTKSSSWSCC

Legend:
Assay in all cases: log2 fold change, soluble protein after heating vs DMSO (PISA); higher = thermal stabilisation; K562 cells, 10 uM, 30 min; active = over 0.2 and 3.5 SD of the protein, either way, in both replicates (recomputed)
[1] = compound: C#Cc1cccc(Nc2ncnc3cc(OCCOC)c(OCCOC)cc23)c1 [erlotinib]
How it was run: (§1)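 Soluble protein was defined as the supernatant after 21,000xg for 90 min. It came from K562 cells at 2×10^6 cells/mL given 10 μM compound for 30 min, heated in aliquots for 3 min across 48°C-58°C, pooled, and extracted in PBS with 0.5% NP-40 at 4°C, and was quantified by TMTpro 16plex LC-MS/MS with equalised channel sums. Thermal stability against control samples, from duplicates, is reported as log2 fold change.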

[2] = compound: C/C(=N\NC(=O)C1=CC(=CC=C1)S(=O)(=O)N2CCOCC2)/C3=C(C=CC(=C3)Cl)O
How it was run: as §1

[3] = compound: C1=CC(=C(C=C1Cl)C2=NC3=NC=CN=C3C(=N2)NC4=CC=NC=C4)F
How it was run: as §1

[4] = compound: C1=CC(=CC=C1C2=NC3=C(N2)C=C(C=C3)C(=O)N)OC4=CC=C(C=C4)Cl
How it was run: as §1

[5] = compound: C1=CC2=C(C=CC(=C2)/C=C\3/C(=O)NC(=NCC4=CC=CS4)S3)N=C1
How it was run: as §1

[6] = compound: C1=CC2=NC=CN=C2C=C1/C=C/3\C(=O)NC(=O)S3
How it was run: as §1

[7] = compound: C1=CC=C(C=C1)C2=NC(=C(N2)C3=CC=NC=C3)C4=CC(=C(C=C4)Cl)O
How it was run: as §1

[8] = compound: C1=CC=C2C(=C1)C3=NNC4=CC=CC(=C43)C2=O
How it was run: as §1

[9] = compound: C1CCN(C1)C(=O)NC2=CC=CC(=C2)NC3=NC=C(C(=N3)NCCC4=CN=CN4)Br
How it was run: as §1

[10] = compound: C1CN(CCC1(CC2=CC=C(C=C2)Cl)N)C3=NC=NC4=C3C=CN4
How it was run: as §1

[11] = compound: C1COCCN1CCN2C3=CC=CC=C3N=C2NC(=O)C4=CC(=CC=C4)[N+](=O)[O-] [IRAK-1-4 Inhibitor I]
How it was run: as §1

[12] = compound: C=CC(=O)N1CCC[C@@H](n2nc(-c3ccc(Oc4ccccc4)cc3)c3c(N)ncnc32)C1 [ibrutinib]
How it was run: as §1

[13] = compound: CC(=O)c1cnc2ccc(-c3cc(Cl)c(O)c(Cl)c3)nc2c1N[C@H]1CC[C@H](CN(C)C)CC1
How it was run: as §1

[14] = compound: CC(C)(C)Cn1c(N)nc2ccc(-c3[nH]c(C(C)(C)C)nc3-c3ccc(F)cc3)nc21 [ralimetinib]
How it was run: as §1

[15] = compound: CC(C)(O)CC(=O)NCCn1ccc2ncnc(Nc3ccc(Oc4cccc(C(F)(F)F)c4)c(Cl)c3)c21
How it was run: as §1

[16] = compound: CC(C)C1=C2N=C(C=C(N2N=C1)NCC3=CC=CC=C3)NCCCCCCN
How it was run: as §1

[17] = compound: CC(C)C[C@@H](C=O)NC(=O)[C@H](CC(C)C)NC(=O)[C@H](CC(C)C)NC(=O)OCc1ccccc1
How it was run: as §1

[18] = compound: CC(C)N(C[C@H]1O[C@@H](n2cnc3c(N)ncnc32)[C@H](O)[C@@H]1O)[C@H]1C[C@@H](CCc2nc3cc(C(C)(C)C)ccc3[nH]2)C1 [pinometostat]
How it was run: as §1

[19] = compound: CC1=C(C(CC(=O)N1)C2=CC=C(C=C2)C(F)(F)F)C(=O)NC3=C(C=C4C(=C3)C=NN4)F
How it was run: as §1

[20] = compound: CC1=C(C2=C(C=C1)C(=O)C3=CC=CC=C3N2CCCN)C
How it was run: as §1

Measured: log2 fold change

RALGAPA1 isoform 6 (UniProt Q6GYQ0)
inactive: [1] -0.014 | [2] 0.09 | [3] 0.042 | [4] -0.039 | [5] -0.031 | [6] 0.084 | [7] 0.006 | [8] 0.029 | [9] 0.104 | [10] 0.365 | [11] -0.088 | [12] 0.013 | [13] -0.05 | [14] -0.059 | [15] -0.191 | [16] -0.04 | [17] 0.002 | [18] 0.059 | [19] -0.064 | [20] -0.12

RANBP2 (UniProt P49792)
inactive: [1] -0.107 | [2] 0.007 | [3] 0.062 | [4] 0.081 | [5] 0.082 | [6] 0.003 | [7] -0.007 | [8] -0.028 | [9] 0.005 | [10] 0 | [11] 0.024 | [12] 0.035 | [13] 0.081 | [14] 0.022 | [15] -0.043 | [16] -0.136 | [17] 0.024 | [18] -0.017 | [20] 0.076

RAB6A isoform 2 (UniProt P20340)
inactive: [1] -0.005 | [2] 0.019 | [3] -0.05 | [4] -0.002 | [5] -0.003 | [6] 0.046 | [7] 0.016 | [8] -0.033 | [9] 0.004 | [10] 0.034 | [11] 0.085 | [12] 0.003 | [13] -0.018 | [14] -0.017 | [15] 0.037 | [16] 0.09 | [17] -0.054 | [18] 0.011 | [19] 0.004 | [20] 0.027

2 records drawn at random from those above, as already listed:
RAB6A isoform 2 (UniProt P20340)
inactive: [1] -0.005 | [2] 0.019 | [3] -0.05 | [4] -0.002 | [5] -0.003 | [6] 0.046 | [7] 0.016 | [8] -0.033 | [9] 0.004 | [10] 0.034 | [11] 0.085 | [12] 0.003 | [13] -0.018 | [14] -0.017 | [15] 0.037 | [16] 0.09 | [17] -0.054 | [18] 0.011 | [19] 0.004 | [20] 0.027

RANBP2 (UniProt P49792)
inactive: [1] -0.107 | [2] 0.007 | [3] 0.062 | [4] 0.081 | [5] 0.082 | [6] 0.003 | [7] -0.007 | [8] -0.028 | [9] 0.005 | [10] 0 | [11] 0.024 | [12] 0.035 | [13] 0.081 | [14] 0.022 | [15] -0.043 | [16] -0.136 | [17] 0.024 | [18] -0.017 | [20] 0.076

(continued)

RAC3 (UniProt P60763)
inactive: [1] 0.05 | [2] -0.016 | [3] 0.029 | [4] -0.042 | [5] 0.009 | [6] 0.02 | [7] -0.009 | [8] -0.09 | [9] -0.007 | [10] 0.005 | [11] 0.115 | [12] 0.022 | [13] 0.104 | [14] -0.008 | [15] 0.032 | [16] 0.082 | [17] -0.009 | [18] -0.081 | [20] 0.102

RBM12 (UniProt Q9NTZ6)
inactive: [1] 0.092 | [2] 0.187 | [3] 0.123 | [4] -0.022 | [5] 0.117 | [6] -0.003 | [7] -0.008 | [8] 0.011 | [9] -0.046 | [10] 0.006 | [11] -0.042 | [12] -0.018 | [13] -0.135 | [14] -0.037 | [15] -0.145 | [16] -0.237 | [17] 0.009 | [18] -0.043 | [20] -0.007

RAB21 (UniProt Q9UL25)
inactive: [1] 0.003 | [2] 0.048 | [3] 0.053 | [4] 0.025 | [5] 0.022 | [6] 0.03 | [7] -0.025 | [8] -0.023 | [9] -0.047 | [10] 0.024 | [11] 0.019 | [12] 0.003 | [13] 0.014 | [14] -0.036 | [15] -0.014 | [16] -0.032 | [17] -0.052 | [18] -0.013 | [19] 0.004 | [20] 0.04

RAB32 (UniProt Q13637)
inactive: [1] -0.02 | [2] 0.047 | [3] -0.007 | [4] 0.002 | [5] -0.025 | [6] 0.069 | [7] -0.041 | [8] 0.044 | [9] 0 | [10] 0.042 | [11] 0.019 | [12] 0.009 | [13] -0.004 | [14] -0.11 | [15] -0.025 | [16] 0.071 | [17] -0.107 | [18] -0.003 | [19] 0.034 | [20] 0.028

RBM17 (UniProt Q96I25)
inactive: [1] 0.039 | [2] 0.044 | [3] 0.015 | [4] -0.023 | [5] -0.085 | [6] -0.029 | [7] 0.1 | [8] 0.011 | [9] -0.08 | [10] -0.16 | [11] -0.037 | [12] 0.114 | [13] -0.179 | [14] 0.158 | [15] -0.077 | [16] -0.053 | [17] 0.029 | [18] 0.11 | [20] 0.012

RAC2 (UniProt P15153)
inactive: [1] 0.009 | [2] -0.014 | [3] -0.045 | [4] -0.005 | [5] -0.003 | [6] 0.031 | [7] -0.008 | [8] -0.06 | [9] 0.01 | [10] 0.021 | [11] 0 | [12] 0.048 | [13] 0.053 | [14] -0.012 | [15] 0.235 | [16] 0.056 | [17] -0.054 | [18] -0.049 | [19] 0.017 | [20] 0.015

RAD21 (UniProt O60216)
inactive: [1] -0.042 | [2] 0.077 | [3] -0.004 | [4] 0.024 | [5] -0.024 | [6] 0.007 | [7] -0.056 | [8] -0.091 | [9] -0.049 | [10] 0.01 | [11] -0.004 | [12] -0.003 | [13] -0.119 | [14] -0.042 | [15] -0.019 | [16] 0.082 | [17] 0.06 | [18] 0.014 | [19] -0.013 | [20] -0.123

RAB5C isoform 2 (UniProt P51148)
inactive: [1] 0 | [2] 0.042 | [3] 0.066 | [4] 0.015 | [5] -0.083 | [6] 0.014 | [7] 0.012 | [8] 0.015 | [9] -0.003 | [10] 0.043 | [11] 0.015 | [12] 0.017 | [13] 0.039 | [14] 0.027 | [15] -0.012 | [16] 0.064 | [17] -0.042 | [18] -0.028 | [20] -0.032

RAPGEF2, A0A2R8YGD3
inactive: [1] 0.027 | [2] -0.31 | [3] 0 | [4] -0.005 | [5] 0.035 | [6] 0.03 | [7] 0.058 | [8] -0.135 | [9] -0.039 | [10] 0.131 | [11] 0.031 | [12] -0.024 | [13] -0.078 | [14] -0.11 | [15] -0.024 | [16] -0.032 | [17] 0.009 | [18] 0.002 | [20] 0.09

RAB4B isoform 2 (UniProt P61018)
inactive: [1] 0.014 | [2] 0.034 | [3] 0 | [4] -0.01 | [5] 0.049 | [6] 0.046 | [7] -0.04 | [8] 0.001 | [9] 0.032 | [10] 0.065 | [11] 0.044 | [12] 0.014 | [13] -0.006 | [14] -0.041 | [15] 0.046 | [16] 0.059 | [17] -0.007 | [18] -0.027 | [19] -0.029 | [20] 0.027

RAB9A (UniProt P51151)
inactive: [1] 0.037 | [2] 0.05 | [3] 0.017 | [4] 0.016 | [5] 0.046 | [6] -0.022 | [7] -0.005 | [8] -0.01 | [9] 0.017 | [10] 0.056 | [11] 0.018 | [12] 0.018 | [13] -0.001 | [14] -0.001 | [15] -0.014 | [16] -0.126 | [17] -0.008 | [18] -0.027 | [20] 0.06

RAB29 (UniProt O14966)
inactive: [1] -0.019 | [2] -0.051 | [3] 0.043 | [4] 0.045 | [5] 0.177 | [6] 0.053 | [7] -0.037 | [8] 0.034 | [9] -0.06 | [10] -0.028 | [11] 0.019 | [12] 0.064 | [13] -0.025 | [14] -0.188 | [15] -0.005 | [16] 0.071 | [17] 0.108 | [18] -0.006 | [19] 0.009 | [20] 0.058
